# PubChem BioAssay AID1688 (National Center for Advancing Translational Sciences (NCATS), 2009)
# The campaign covered roughly 220,000 compounds. About 2,400 (1.1%) were called active. Inconclusive results, whose numbers are uncertain, are shown with a selection of clear calls. The call rests on the fitted dose curve; in most records, active means well fitted inhibition curve with a large enough effect; inconclusive means small, poorly fitted or top-dose-only effect, or effect the other way; inactive means no such curve, though single readings can be large or run the other way. A potency beside an inconclusive call is a rough fit, not a confirmed value.
# Assay: qHTS Multiplex Assay to Identify Dual Action Probes in a Cell Model of Huntington: Aggregate Formation (GFP); further: nearly all actives have a fitted effect of over 60% in size
# Settings: PC12 HttQ103-GFP aggregates, Acumen cytometry, 40 h; activity change, negative = inhibition: at 46.1 µM (top of the series) unless noted
# Method in brief: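 Huntingtin Q103 exon 1–GFP aggregates in induced PC12 cells (100 nM tebufenozide) were quantified by cytometry from lysates, with compounds dosed in titration.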
# On the % scale 0 is the no-effect control and ±100 the full control effect; potency means the concentration at half of the fitted maximal effect.
SMILES,Potency,"activity change, negative = inhibition"
COC(=O)/C(=C/c1ccc(F)cc1)NC(C)=O,"inconclusive: 15.8 µM [inhibitor, single point]",
CC(=O)N1N=C(c2ccco2)CC1c1cccs1 (stereo unspecified),"inconclusive: 35.5 µM [activator, single point]",
Nc1ccc(C(=O)N/N=C\c2cc(N=Nc3cccc4ccccc34)ccc2O)cc1,"inconclusive: 7.94 µM [inhibitor, partial curve]",
Cc1ccc(N2CCN(c3ccc(C)cc3)C(CC(=O)O)C2=O)cc1 (stereo unspecified),"inconclusive: 3.55 µM [inhibitor, single point]",
O=C1C(Cl)=C(Nc2ccc(O)cc2)C(=O)c2ccccc21,"inconclusive: 5.62 µM [inhibitor, single point]",
CCCN1C(=O)S/C(=C\c2ccc(N3CCOCC3)o2)C1=O,"inconclusive: 15.8 µM [inhibitor, single point]",
O=[N+]([O-])c1ccc2c(c1Nc1ccccc1)=NC1(CCCCC1)N=2,"inconclusive: 35.5 µM [activator, single point]",
CCN1CCCc2cc(CN(CCN3CCOCC3)C(=O)Nc3ccc(C)c(C)c3)ccc21,,inactive: -4.44% [at 9.22 µM]
O=c1[nH]c2cc3c(cc2cc1C(c1nnnn1Cc1ccccc1)N1CCCc2ccccc21)OCO3 (stereo unspecified),inactive,
Cc1ccc(N2C(=O)CC(Nc3ccccc3)C2=O)cc1 (stereo unspecified),"inconclusive: 0.562 µM [inhibitor, partial curve, poor fit]",
O=C(On1c(-c2ccccc2)nc2ccccc2c1=O)c1ccco1,inactive,
Cc1ccc(Cl)cc1NC1=C/C(=N\S(=O)(=O)c2cccs2)c2ccccc2C1=O,active: 1.58 µM,
CCN(c1ccccc1)S(=O)(=O)c1ccc(Cl)c(NC(=O)CSc2nncs2)c1,"inconclusive: 15.8 µM [inhibitor, single point]",
CCc1c(C)nc2ncnn2c1NCCc1ccc(OC)c(OC)c1,active: 10 µM,
O=C(C1CCCN(Cc2ccccc2Br)C1)N1CCCCC1 (stereo unspecified),inactive,
Cc1nn(CCc2nc(-c3ccco3)cs2)c2[nH]c(=O)cc(C(F)(F)F)c12,inactive,
CN(C)C=Nc1ncc2c3ccccc3n(CCN(C)C)c2c1C#N,active: 2.82 µM,
COC(=O)c1ccc(CSc2ncnc3c2nnn3-c2ccc(F)cc2)o1,"inconclusive: 25.1 µM [inhibitor, single point]",
COc1ccc(CNC(=O)C2(C)Cc3ccccc3C(=O)O2)cc1 (stereo unspecified),"inconclusive: 0.562 µM [activator, full curve, poor fit]",
CCN(CC)S(=O)(=O)c1ccc(S(=O)(=O)N(Cc2ccccn2)Cc2ccco2)cc1,"inconclusive: 0.447 µM [activator, single point]",
Nc1nc(SCC(=O)Nc2ccccc2Sc2ccccc2)n[nH]1,inactive,
Cc1ccc(-n2nnc3c(SCC(=O)NCC4CCCO4)ncnc32)cc1 (stereo unspecified),"inconclusive: 35.5 µM [inhibitor, single point]",
Cc1ccc(C)c(N2CCN(C(=S)Nc3ccc4nc(N5CCN(C)CC5)cc(C)c4c3)CC2)c1,"inconclusive: 35.5 µM [inhibitor, single point]",
CSc1nc2ccccc2n1CC(=O)Nc1ccc(C)c(C)c1,"inconclusive: 15.8 µM [activator, single point]",

SMILES,Potency,"activity change, negative = inhibition"
O=[N+]([O-])/C=C/c1cn(Cc2ccccc2)c2ccccc12,"inconclusive: 35.5 µM [inhibitor, single point]",
Cc1nnc(NC(=O)CSc2nc(C(C)C)nc3sc(C)c(C)c23)s1,"inconclusive: 0.282 µM [activator, full curve, poor fit]",
Cc1ccc(C[n+]2cccc(-c3ccccc3)c2)c(C)c1,"inconclusive: 3.98 µM [inhibitor, full curve]",
N#Cc1c(NC(=O)c2ccc(Cn3cc(Br)cn3)o2)sc2c1CCCCCC2,"inconclusive: 35.5 µM [inhibitor, single point]",
CCOc1cc(CNCC(C)C)cc(Cl)c1OCc1ccccc1,"inconclusive: 31.6 µM [inhibitor, single point]",
Cc1nn(C)c(Sc2ccccc2N)c1[N+](=O)[O-],,inactive: -4.34% [at 9.22 µM]
C=C(C)CC1N(c2cccc(OC)c2)C(=O)[C@@H]2C(C(=O)O)[C@H]3C=C[C@@]12O3 (stereo partly specified),"inconclusive: 0.891 µM [inhibitor, full curve, poor fit]",
Cc1ccc(NS(=O)(=O)c2cc(C(=O)NCCSC3CCCCC3)ccc2C)cc1,"inconclusive: 35.5 µM [inhibitor, single point]",
COc1ccc(-c2cc(C(F)F)n3ncc(C(=O)NCC4CCCO4)c3n2)cc1 (stereo unspecified),"inconclusive: 1.26 µM [activator, single point]",
Cc1ccccc1S(=O)(=O)Cc1ccc(C(=O)N2CCN(c3cccc(C)c3C)CC2)o1,active: 12.6 µM,
Cc1n[nH]c(C)c1C(=O)CC1(O)C(=O)N(CCc2ccccc2)c2ccc(Br)cc21 (stereo unspecified),inactive,
COc1ccc(Br)cc1-c1noc(-c2ccccc2F)n1,active: 3.98 µM,
Cc1nn(Cc2ccccc2)c(Cl)c1C(=O)NCCc1ccccc1,inactive,
Clc1ccc(C2=Nn3c(nnc3-c3n[nH]c4c3CCC4)SC2)cc1Cl,"inconclusive: 10 µM [activator, partial curve]",
COCCCNC(=O)/C=C/c1ccc(Cl)cc1Cl,inactive,
CCOC(=O)c1c(-c2ccccc2)csc1NC(=O)CCN1CCOCC1,inactive,
CCC(C)C(=O)OC1CCC=C2C=CC(C)C(CCC3CC(O)CC(=O)O3)[C@@H]21 (stereo partly specified),inactive,
Cc1ccc(N=c2oc3cc(O)ccc3cc2C(N)=O)cc1,"inconclusive: 35.5 µM [activator, single point]",
C/C(=N\O)C(=O)NCc1ccncc1,"inconclusive: 5.62 µM [inhibitor, single point]",
Cc1nc(C)c(C(=O)Nc2ccc(Oc3ccccc3)cc2)o1,"inconclusive: 31.6 µM [inhibitor, single point]",
COc1cccc(C2CC(=O)Nc3cc4c(cc32)OCCO4)c1OC(C)C (stereo unspecified),inactive,
O=C1C=CC2C(c3ccc4c(c3)OCO4)CC1N2Cc1ccccc1 (stereo unspecified),"inconclusive: 3.98 µM [inhibitor, single point]",
O=C(O/N=C\c1ccc(N2CCCCC2)c([N+](=O)[O-])c1)c1cccc(C(F)(F)F)c1,"inconclusive: 3.55 µM [inhibitor, full curve, poor fit]",
Cc1nc(C)c(C(=O)NCc2ccccc2Cl)o1,"inconclusive: 12.6 µM [inhibitor, partial curve]",

# Five entries drawn at random from the list so far:
SMILES,Potency,"activity change, negative = inhibition"
Nc1nc(SCC(=O)Nc2ccccc2Sc2ccccc2)n[nH]1,inactive,
Cc1ccc(NS(=O)(=O)c2cc(C(=O)NCCSC3CCCCC3)ccc2C)cc1,"inconclusive: 35.5 µM [inhibitor, single point]",
O=C(On1c(-c2ccccc2)nc2ccccc2c1=O)c1ccco1,inactive,
Cc1nc(C)c(C(=O)Nc2ccc(Oc3ccccc3)cc2)o1,"inconclusive: 31.6 µM [inhibitor, single point]",
C=C(C)CC1N(c2cccc(OC)c2)C(=O)[C@@H]2C(C(=O)O)[C@H]3C=C[C@@]12O3 (stereo partly specified),"inconclusive: 0.891 µM [inhibitor, full curve, poor fit]",

# Following part:

SMILES,Potency,"activity change, negative = inhibition"
COc1ccc(C(=O)c2ccccc2O)c(O)c1,inactive,
CC(C)NC(=S)N/N=C/c1ccc(N2CCOCC2)cc1,inactive,
CC(C)C1CC(=O)NC(SCC(=O)Nc2ccc(Br)cc2)=C1C#N (stereo unspecified),"inconclusive: 22.4 µM [inhibitor, single point]",
O=C1C2ON(c3ccccc3)C(c3cccnc3)C2C(=O)N1Cc1ccccc1 (stereo unspecified),inactive,
CCOC(=O)C1(CCCc2ccccc2)CCN(C(=O)c2cnc(C)cn2)CC1,,inactive: -3.53% [at 9.22 µM]
CCOC(=O)C1(CC)NC(c2ccco2)C2C(=O)N(c3ccc(C)cc3)C(=O)C21 (stereo unspecified),"inconclusive: 35.5 µM [inhibitor, single point]",
CSc1nc(-c2ccccc2)nc(N2CCN(C)CC2)c1C(C)=O,inactive,
CCn1nccc1C(=O)Nc1cc(Cl)ccc1Cl,"inconclusive: 3.55 µM [inhibitor, single point]",
O=C(NC(=S)Nc1ccc(Oc2ccc(Cl)cc2)cc1)c1ccccc1,"inconclusive: 35.5 µM [inhibitor, single point]",
CNC(=O)C1CC(=O)N/C(=N/N=C(\C)c2cccs2)S1 (stereo unspecified),inactive,
CCC(/C=C1\Sc2ccc(OC)cc2N1CC)=C\c1sc2ccc(OC)cc2[n+]1CCCS(=O)(=O)[O-],"inconclusive: 2.51 µM [inhibitor, full curve]",
CCN1CCc2c(OCc3ccccc3)cccc2C1=O,"inconclusive: 10 µM [inhibitor, partial curve]",
COc1ccc(/C=C2/C(=O)N(c3nc4ccccc4s3)N=C2CSc2ccc(Cl)cc2)cc1,"inconclusive: 22.4 µM [inhibitor, single point]",
COC(=O)c1c(-c2ccc(C)cc2)csc1NC(=O)Cc1ccc(OC)c(OC)c1,"inconclusive: 28.2 µM [inhibitor, single point]",
CCN1CCN(CC(=O)c2ccc(OC)cc2)CC1,inactive,
CCN(CC)CCCNC(CC(=O)Nc1cccc([N+](=O)[O-])c1)C(=O)O (stereo unspecified),"inconclusive: 5.62 µM [inhibitor, single point]",
COc1ccc(O)c(C(=O)c2cc(C#N)c(=O)n(CC3CCCO3)c2)c1 (stereo unspecified),inactive,
CCc1ccccc1NC(=S)N1CCN(c2ccccn2)CC1,inactive,
Cc1ccc(NN2C(=O)C=C(c3ccccc3)C2=O)cc1,"inconclusive: 35.5 µM [inhibitor, single point]",
Cc1ccccc1Cn1nc(C)c(NC(=O)c2noc3c2CCc2ccccc2-3)c1C,"inconclusive: 25.1 µM [inhibitor, single point]",
CCOC(=O)c1cc(CC)sc1NC(=O)CC1Sc2ccc(C(F)(F)F)cc2NC1=O (stereo unspecified),"inconclusive: 1.41 µM [inhibitor, partial curve, poor fit]",
CCN(CC)C(=O)CSc1nc2c(sc(=S)n2-c2ccccc2)c(=O)[nH]1,inactive,
O=C(Nc1ccc(S(=O)(=O)N2CCCCC2)cc1)c1ccc(CN2CCc3ccccc3C2)cc1,"inconclusive: 2.82 µM [inhibitor, full curve]",
